Measurements published in article doi:10.1101/2020.01.07.897124 (bioRxiv, 2020).
These are yes or no findings as the source states them, for the method shown. Some binding calls cover weakened binding; strength is not graded here. Where a sequence is shown, tags or fusion partners need not be part of it.

Molecular target: N-terminal GFP-tagged N-terminal truncated hSOAT1 (66-550) (human) (UniProt P35610)
Test: SEC

- binding: binds
B1: N-terminal GFP-tagged N-terminal truncated hSOAT1 (66-550) (domain or fragment, UniProt P35610 66-550)
chain: MKEVGSHFDDFVTNLIEKSASLDNGGCALTTFSVLEGEKNNHRAKDLRAPPEQGKIFIARRSLLDELLEVDHIRTIYHMFIALLILFILSTLVVDYIDEGRLVLEFSLLSYAFGKFPTVVWTWWIMFLSTFSVPYFLFQHWATGYSKSSHPLIRSLFHGFLFMIFQIGVLGFGPTYVVLAYTLPPASRFIIIFEQIRFVMKAHSFVRENVPRVLNSAKEKSSTVPIPTVNQYLYFLFAPTLIYRDSYPRNPTVRWGYVAMKFAQVFGCFFYVYYIFERLCAPLFRNIKQEPFSARVLVLCVFNSILPGVLILFLTFFAFLHCWLNAFAEMLRFGDRMFYKDWWNSTSYSNYYRTWNVVVHDWLYYYAYKDFLWFFSKRFKSAAMLAVFAVSAVVHEYALAVCLSFFYPVLFVLFMFFGMAFNFIVNDSRKKPIWNVLMWTSLFLGNGVLLCFYSQEWYARQHCPLKNPTFLDYVRPRSWTCRYVF
